Results are given in words; binding and its absence hold for the method and conditions named. Binding seen in cells or lysates may run through a third protein.
Biological target: mCherry-DDX3X(qmNESα) (full length) (human) (UniProt O00571)
Assay: co-IP; anti-mCherry antibody on Protein G magnetic resin; lysate of FACS-sorted HEK-293T cells in 20 mM Tris-Cl pH 7.4, 150 mM NaCl, 0.1% IPEGAL with RNaseA; 30 min at 4 °C; immunoblot for endogenous proteins

Amino acid sequences for entries named in this document (tags omitted). A change or cut given only in a name is not applied to a line headed by its entry. Chains listed by the source or under a name are the forms on record and can include a tag or linker.
UniProt O00571: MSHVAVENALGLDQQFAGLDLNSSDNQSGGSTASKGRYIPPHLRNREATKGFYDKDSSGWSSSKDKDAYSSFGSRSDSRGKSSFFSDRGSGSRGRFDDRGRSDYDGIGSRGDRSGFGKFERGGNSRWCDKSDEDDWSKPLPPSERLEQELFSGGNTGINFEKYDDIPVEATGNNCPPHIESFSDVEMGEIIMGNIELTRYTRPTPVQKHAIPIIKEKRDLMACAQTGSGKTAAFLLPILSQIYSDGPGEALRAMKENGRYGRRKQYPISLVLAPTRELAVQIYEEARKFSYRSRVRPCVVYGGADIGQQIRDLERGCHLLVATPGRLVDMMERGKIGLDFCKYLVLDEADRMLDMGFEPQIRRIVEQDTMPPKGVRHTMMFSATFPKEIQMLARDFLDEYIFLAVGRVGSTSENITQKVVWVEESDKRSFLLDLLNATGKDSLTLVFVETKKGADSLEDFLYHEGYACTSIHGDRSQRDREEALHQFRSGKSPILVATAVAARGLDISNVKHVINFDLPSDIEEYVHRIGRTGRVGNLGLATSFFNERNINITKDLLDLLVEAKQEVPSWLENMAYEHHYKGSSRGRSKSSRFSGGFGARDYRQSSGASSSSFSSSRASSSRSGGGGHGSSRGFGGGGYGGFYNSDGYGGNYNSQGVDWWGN
mCherry-DDX3X(qmNESα) (full length) (O00571, form named): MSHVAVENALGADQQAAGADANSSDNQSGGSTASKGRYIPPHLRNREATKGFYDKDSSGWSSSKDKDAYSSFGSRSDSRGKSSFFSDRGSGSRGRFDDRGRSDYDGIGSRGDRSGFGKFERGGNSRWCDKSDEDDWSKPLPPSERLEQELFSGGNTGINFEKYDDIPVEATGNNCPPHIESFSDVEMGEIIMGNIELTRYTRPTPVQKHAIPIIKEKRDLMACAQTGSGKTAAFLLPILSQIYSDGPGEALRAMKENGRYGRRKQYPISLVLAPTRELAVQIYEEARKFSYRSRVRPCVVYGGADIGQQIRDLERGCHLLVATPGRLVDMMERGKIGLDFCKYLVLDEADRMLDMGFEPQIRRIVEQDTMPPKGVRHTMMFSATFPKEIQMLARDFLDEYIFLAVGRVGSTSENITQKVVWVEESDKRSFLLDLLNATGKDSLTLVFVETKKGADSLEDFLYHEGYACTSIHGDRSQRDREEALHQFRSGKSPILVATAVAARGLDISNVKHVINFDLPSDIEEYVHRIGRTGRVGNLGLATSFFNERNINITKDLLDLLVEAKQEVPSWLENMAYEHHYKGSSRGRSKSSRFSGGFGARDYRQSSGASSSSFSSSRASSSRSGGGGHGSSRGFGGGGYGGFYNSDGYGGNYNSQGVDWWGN

binding: no binding
Substance: endogenous exportin-1 (from UniProt O14980 1-1071) (receptor)

— publication PMC6848931
